# Assay results published in PubChem BioAssay AID504834 (National Center for Advancing Translational Sciences (NCATS), 2011).
# The whole screen tested about 320,000 compounds, of which about 22,000 (6.9%) were called active. This list was built around the results that the source calls inconclusive (neither active nor inactive); the mix of calls is not that of the screen. The call rests on the fitted dose curve; in most records, active means well fitted inhibition curve with a large enough effect; inconclusive means small, poorly fitted or top-dose-only effect, or another doubt; inactive means no such curve, though single readings can be large or run the other way. Where the call is inconclusive, the potency comes from a doubtful curve fit.
# Test: Primary qHTS for delayed death inhibitors of the malarial parasite plastid, 96 hour incubation
# Details: P. falciparum luciferase reporter growth; series mostly up to 28.7 µM
# Method in brief: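 Compounds incubated with erythrocytes infected by luciferase-expressing P. falciparum (2% hematocrit, 0.05% parasitemia final) for 96 hours, 37 C in 5% CO2. Growth inhibition scored as decreased luciferase luminescence.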
# Potency means the concentration at half of the fitted maximal effect.
row,SMILES,Potency
1,COCCOC(=O)/C=C1/NC(=O)CS1,"inconclusive: 16.5 µM [inhibitor, single point]"
2,COc1ccc(C2/C=C\CN(C(=O)C3CCCC3)[C@H](Cc3ccccc3)C(=O)N2Cc2ccc(F)cc2)cc1 (stereo not given in full),active: 10.4 µM
3,COc1ccc(NC(=O)C2CCN(C(=O)Cc3ccccc3)CC2)cc1OC,inactive
4,Nc1nc(-c2ccc(-n3nncc3-c3ccco3)cc2)cs1,"inconclusive: 18.5 µM [inhibitor, single point]"
5,CN(CC(=O)Nc1cccc(F)c1)C(=O)c1cc(S(=O)(=O)N2CCN(c3ccccc3)CC2)ccc1Cl,"inconclusive: 18.5 µM [inhibitor, single point]"
6,CCC(C)c1ccccc1N1CC(C(=O)N(C)CC(=O)Nc2cccc(F)c2)CC1=O (stereo not given),"inconclusive: 18.5 µM [inhibitor, single point]"
7,CCOC(=O)Cc1csc(NC(=O)Cn2c(=O)oc3ccccc32)n1,inactive
8,Cc1cccc(OCC(=O)NC2CCCC2)c1,"inconclusive: 3.7 µM [inhibitor, full curve, poor fit]"
9,CCC(C)NCCOc1ccccc1C (stereo not given),inactive
10,COc1cc(-c2noc(CCCC(=O)Nc3ccc(C(N)=O)cc3)n2)cc(OC)c1OC,"inconclusive: 0.185 µM [inhibitor, full curve, poor fit]"
11,Cc1ccc(C)c(N2CCN(C(=O)CCCCCn3c(=S)[nH]c4ccc(N5CCOCC5)cc4c3=O)CC2)c1,"inconclusive: 11.7 µM [inhibitor, single point]"
12,CC(NC(=O)CN(C)S(=O)(=O)c1ccc2c(c1)c(=O)n(C)c(=O)n2C)c1ccccc1 (stereo not given),"inconclusive: 18.5 µM [inhibitor, single point]"
13,CCCCNC1c2ccccc2C(=O)N1Cc1ccccc1 (stereo not given),"inconclusive: 18.5 µM [inhibitor, single point]"
14,COc1ccc(C(C(=O)NC2CCCCC2)N(C(=O)c2ccccn2)c2cccnc2)c(OC)c1 (stereo not given),"inconclusive: 2.62 µM [inhibitor, full curve]"
15,Cc1ccc(S(=O)(=O)NCCC(=O)NC(C)c2ccccc2)cc1 (stereo not given),"inconclusive: 18.5 µM [inhibitor, single point]"
16,COc1ccc(CCNC(=O)c2coc3ccccc3c2=O)cc1OC,"inconclusive: 18.5 µM [inhibitor, single point]"
17,Cc1sc2nc(CN(Cc3cccs3)C(=O)NC3CCCCC3)[nH]c(=O)c2c1C,inactive
18,O=C(NCc1ccccc1)C(c1ccc(O)cc1)N(C(=O)Cn1nnc(-c2cccs2)n1)c1ccc2c(c1)OCCO2 (stereo not given),inactive
19,CN=C(SCc1cc2c(cc1Cl)OCO2)c1c(O)n(C)c(=O)n(C)c1=O,"inconclusive: 18.5 µM [inhibitor, single point]"
20,COc1ccccc1-n1c(-c2ccccc2Cl)nc2ccccc2c1=O,"inconclusive: 13.1 µM [inhibitor, partial curve, poor fit]"
21,COC(=O)c1ccc2c(c1)N(Cc1ccccc1F)C(=O)c1ccccc1S2=O (stereo not given),"inconclusive: 10.4 µM [inhibitor, single point]"
22,COc1ccc(C(=S)N2CCC(C(N)=O)CC2)cc1Br,inactive
23,Cc1ccc2cc(CCNC(=O)c3cccc([N+](=O)[O-])c3)c(=O)[nH]c2c1,inactive
24,COC1Cc2ccccc2N(C(=O)N2CCN(CCO)CC2)c2ccccc21 (stereo not given),"inconclusive: 14.7 µM [inhibitor, single point]"

row,SMILES,Potency
1,CC(C)(C)NC(=O)C(c1ccncc1)N(Cc1cccs1)C(=O)c1csnn1 (stereo not given),"inconclusive: 10.4 µM [inhibitor, partial curve, poor fit]"
2,OC(CN1CCOCC1)(c1ccccc1)c1ccccn1 (stereo not given),inactive
3,O=C(NCC(c1ccco1)N1CCN(c2ccccc2F)CC1)c1cccs1 (stereo not given),"inconclusive: 9.28 µM [inhibitor, single point]"
4,CC(C)(C)c1nc(NC(=O)Nc2ccccc2)sc1Br,"inconclusive: 18.5 µM [inhibitor, single point]"
5,COc1ccc(OC)c(S(=O)(=O)Nc2c(NC3CCCCC3)c3ccccc3oc2=O)c1,inactive
6,O=c1cc(CSc2ccccn2)c2ccccc2[nH]1,active: 9.28 µM
7,CCn1nnnc1SCC(=O)N1CCOCC1,"inconclusive: 7.38 µM [inhibitor, partial curve, poor fit]"
8,O=C(COc1ccc(S(=O)(=O)N2CCCCC2)cc1)N1CCOCC1,"inconclusive: 1.85 µM [inhibitor, full curve, poor fit]"
9,O=C(CN1C(=O)c2cccc3cccc1c23)NC1CCCCC1,inactive
10,C=CCN1C(=O)C2(OCCCO2)c2ccccc21,"inconclusive: 11.7 µM [inhibitor, single point]"
11,CC(C)[C@H]1C(=O)Nc2ccccc2N1C(=O)N[C@@H](Cc1ccccc1)C(=O)N[C@@H](Cc1ccccc1)C(=O)O,"inconclusive: 8.28 µM [inhibitor, partial curve]"
12,Cc1ccccc1S(=O)(=O)Cc1ccc(C(=O)NC2CCCCCC2)o1,"inconclusive: 9.28 µM [inhibitor, single point]"
13,C#CCOCCOCCOCCNc1nc(N2CCN(C(=O)Cn3cc(CC(C)O)nn3)CC2)nc(N2CCN(C(=O)[C@H](C)n3cc(CCCN=C(N)N)nn3)CC2)n1 (stereo not given in full),active: 11.7 µM
14,O=C(COC(=O)/C=C/c1ccc([N+](=O)[O-])cc1)Nc1ccc(F)cc1,inactive
15,O=C(O)c1ccc(-c2ncc[nH]2)cc1,"inconclusive: 2.62 µM [inhibitor, full curve, poor fit]"
16,O=C(OCc1ccc(Br)cc1)c1cccc(S(=O)(=O)N2CCCC2)c1,active: 10.4 µM
17,CC(C)OC(=O)c1cc2c(ccn2C)n1CC(=O)N1CCC(Cc2ccccc2)CC1,"inconclusive: 13.1 µM [inhibitor, single point]"
18,CC(=O)Nc1ccc(NC(=O)C(C)OC(=O)CNS(=O)(=O)c2ccc(Br)cc2Cl)cc1 (stereo not given),inactive
19,Cc1ccc(CN2CC(C(=O)N3CCN(S(=O)(=O)c4cc(C)ccc4C)CC3)CC2=O)cc1 (stereo not given),"inconclusive: 7.38 µM [inhibitor, partial curve]"
20,O=C(c1ccc(Oc2ccc([N+](=O)[O-])cc2)cc1)N1CCCCCC1,inactive
21,O=C(Nc1nc(-c2ccc(S(=O)(=O)N3CCOCC3)cc2)cs1)c1ccccc1,active: 8.28 µM
22,O=C(CSC(=S)N1CCCC1)N1CCN(S(=O)(=O)c2cccc(F)c2)CC1,"inconclusive: 18.5 µM [inhibitor, single point]"
23,Cc1csc2ncc(C(=O)Nc3cccc(C(F)(F)F)c3)c(=O)n12,inactive
24,Cc1cc(=O)oc2c(N)c(O)ccc12,"inconclusive: 18.5 µM [inhibitor, single point]"

# Reformatted as tab-separated lines: part of the list above.
row	SMILES	Potency
2	COc1ccc(C2/C=C\CN(C(=O)C3CCCC3)[C@H](Cc3ccccc3)C(=O)N2Cc2ccc(F)cc2)cc1 (stereo not given in full)	active: 10.4 µM
7	CCn1nnnc1SCC(=O)N1CCOCC1	inconclusive: 7.38 µM [inhibitor, partial curve, poor fit]
20	O=C(c1ccc(Oc2ccc([N+](=O)[O-])cc2)cc1)N1CCCCCC1	inactive

# Further structures follow:

row,SMILES,Potency
1,O=C(CN1CC(c2ccccc2)CC1=O)N/N=C/c1cc(Br)ccc1O (stereo not given),inactive
2,COC(=O)C1CCN(C(=O)COc2ccc(N(C)S(=O)(=O)c3ccc(C)cc3)cc2)CC1,"inconclusive: 5.86 µM [inhibitor, partial curve, poor fit]"
3,O=C(NC(=S)N1CCN(c2nc(-c3ccccc3)cs2)CC1)c1cncc(Br)c1,"inconclusive: 18.5 µM [inhibitor, single point]"
4,COCC(C)n1c(SCC(=O)NC(=O)NC2CCCC2)nc2ccccc2c1=O (stereo not given),"inconclusive: 14.7 µM [inhibitor, partial curve, poor fit]"
5,O=C1C(Cc2ccccc2)C(c2ccccc2)N1c1ccccc1 (stereo not given),active: 10.4 µM
6,CN(C)S(=O)(=O)c1cccc(NC(=O)COc2ccc3ccccc3c2)c1,"inconclusive: 7.38 µM [inhibitor, partial curve, poor fit]"
7,Cc1ccc(OC(C)C(=O)Nc2ccc3c(c2)n(C)c(=O)n3C)c(C)c1 (stereo not given),"inconclusive: 11.7 µM [inhibitor, single point]"
8,C=CCOC(=O)C1=C(C)NC(=O)NC1c1cc(Cl)cc(Cl)c1OC (stereo not given),"inconclusive: 13.1 µM [inhibitor, single point]"
9,O=C(NCC(=O)N1CCC(N2CCCCC2)CC1)C1CCCCC1,active: 1.17 µM
10,CCc1ccc(NC(=O)C(=O)N/N=C(\C)CC(=O)Nc2ccc(OC)cc2)cc1,inactive
11,Cc1ccc(C)c(S(=O)(=O)N(C(=O)c2ccncc2)c2ccc(OC(=O)c3ccncc3)cc2)c1,"inconclusive: 18.5 µM [inhibitor, partial curve, poor fit]"
12,CCCN1CCn2c3c(c4cc(Br)ccc42)CCCC31 (stereo not given),active: 1.85 µM
13,COc1cc(OC)cc(C(=O)Nc2ccccc2C(=O)NC2CC2)c1,inactive
14,O=C(O)c1ccc(-n2cccn2)nc1,inactive
15,Cc1ccc(OCCNC(=O)c2cccc(S(=O)(=O)N3CCN(C)CC3)c2)cc1,"inconclusive: 18.5 µM [inhibitor, single point]"
16,Cc1cccc(CN2CCN(Cc3cccc(-n4cccn4)c3)CC2CCO)n1 (stereo not given),active: 4.15 µM
17,CC(C)(C)C(=O)Nc1ccnn1C1CCN(C(=O)c2cccc(Cl)c2)CC1,"inconclusive: 18.5 µM [inhibitor, single point]"
18,COc1ccccc1C1Nc2cccc3cccc(c23)N1,inactive
19,CC1=C(C(=O)OC2CCCCC2)C(c2ccco2)n2ncnc2N1 (stereo not given),"inconclusive: 10.4 µM [inhibitor, single point]"
20,N#Cc1ccc(Oc2cc(C(F)(F)F)nc(-c3ccccn3)n2)cc1,inactive
21,Cc1ccc(/C=C2/C(=N)N3N=C(CC(=O)N4CCCC4)SC3=NC2=O)cc1,"inconclusive: 18.5 µM [inhibitor, single point]"
22,Nc1nc(-c2ccco2)nn1C(=O)c1ccc([N+](=O)[O-])cc1,"inconclusive: 1.31 µM [inhibitor, full curve, poor fit]"

# Random excerpt: 2 compounds from above.
row,SMILES,Potency
20,N#Cc1ccc(Oc2cc(C(F)(F)F)nc(-c3ccccn3)n2)cc1,inactive
14,O=C(O)c1ccc(-n2cccn2)nc1,inactive
